Data published in patent US7897630B2, “5-aryl isoxazolines for controlling invertebrate pests” (E.I. du Pont de Nemours and Company, priority 2005, dated 2011).
Some results were stated once for a whole list of compounds, not compound by compound.

What was measured:
Assay type in all cases: in vivo
[1] = test system: fall armyworm (Spodoptera frugiperda); assay: Test B: control of fall armyworm on corn (maize) plant, foliar spray; conditions: sprayed at 250 ppm; corn plant with 1-day-old larvae; rated as in Test A; criterion met by feeding damage <=20% or mortality >=80%
[2] = test system: diamondback moth (Plutella xylostella); assay: Test A: control of diamondback moth on radish plant, foliar spray; conditions: sprayed at 250 ppm; radish plant with neonate larvae; assessed after 6 days; criterion met by feeding damage <=20% or mortality >=80%
[3] = test system: green peach aphid (Myzus persicae); assay: Test C: control of green peach aphid on radish plant, contact and/or systemic; conditions: sprayed at 250 ppm, 6 days
[4] = test system: cotton melon aphid (Aphis gossypii); assay: Test E: control of cotton melon aphid on cotton plant, contact and/or systemic; conditions: sprayed at 250 ppm, 6 days
[5] = test system: silverleaf whitefly (Bemisia tabaci); assay: Test G: control of silverleaf whitefly nymphs on cotton plant; conditions: sprayed at 250 ppm, 2nd and 3rd instar nymphs, 6 days
[6] = test system: Western Flower Thrips (Fraukliniella occidentalis); assay: Test F: control of Western Flower Thrips on Longio Bean plant, contact and/or systemic; conditions: sprayed at 250 ppm, adult thrips, 7 days
[7] = test system: potato leafhopper (Empoasca fabae Harris); assay: Test D: control of potato leafhopper on Longio bean plant, contact and/or systemic; conditions: sprayed at 250 ppm, adults, 6 days

Cc1cc(C2=NOC(c3cc(Cl)cc(Cl)c3)(C(F)(F)F)C2)ccc1-n1cccn1 (racemic) [Compound 2]
≥ 80%: control efficacy (20% or less feeding damage or 80% or more mortality) [1] | control efficacy (20% or less feeding damage or 80% or more mortality) [2] | mortality [3] | mortality [4]

FC(F)(F)C1(c2cc(Cl)cc(Cl)c2)CC(c2ccc(-n3cncn3)cc2)=NO1 (racemic) [Compound 9]
≥ 80%: control efficacy (mortality) [5] | mortality [6] | mortality [7] | control efficacy (20% or less feeding damage or 80% or more mortality) [2] | mortality [3] | mortality [4]

Cc1cc(C2=NOC(c3cc(Cl)cc(Cl)c3)(C(F)(F)F)C2)ccc1-n1cncn1 (racemic) [Compound 14]
≥ 80%: control efficacy (20% or less feeding damage or 80% or more mortality) [1] | control efficacy (mortality) [5] | mortality [6] | mortality [7] | control efficacy (20% or less feeding damage or 80% or more mortality) [2] | mortality [3] | mortality [4]

Fc1cc(C2=NOC(c3cc(Cl)cc(Cl)c3)(C(F)(F)F)C2)ccc1-n1cccn1 (racemic) [Compound 17]
≥ 80%: control efficacy (20% or less feeding damage or 80% or more mortality) [1] | mortality [6] | control efficacy (20% or less feeding damage or 80% or more mortality) [2] | mortality [3]

FC(F)(F)C1(c2cc(Cl)cc(Cl)c2)CC(c2ccc(-n3ccnn3)cc2)=NO1 (racemic) [Compound 19]
≥ 80%: control efficacy (20% or less feeding damage or 80% or more mortality) [1] | mortality [6] | mortality [7] | control efficacy (20% or less feeding damage or 80% or more mortality) [2] | mortality [4]

FC(F)(F)C1(c2ccc(Cl)c(Cl)c2)CC(c2ccc(-n3cncn3)cc2)=NO1 (racemic) [Compound 22]
≥ 80%: control efficacy (20% or less feeding damage or 80% or more mortality) [1] | mortality [6] | mortality [7] | control efficacy (20% or less feeding damage or 80% or more mortality) [2]

FC(F)(F)c1cc(C(F)(F)F)cc(C2(C(F)(F)F)CC(c3ccc(-n4cncn4)cc3)=NO2)c1 (racemic) [Compound 24]
≥ 80%: control efficacy (20% or less feeding damage or 80% or more mortality) [1] | mortality [6] | mortality [7] | control efficacy (20% or less feeding damage or 80% or more mortality) [2]

FC(F)(F)C1(c2cc(Br)cc(Br)c2)CC(c2ccc(-n3cncn3)cc2)=NO1 (racemic) [Compound 26]
≥ 80%: control efficacy (20% or less feeding damage or 80% or more mortality) [1] | mortality [6] | mortality [7] | control efficacy (20% or less feeding damage or 80% or more mortality) [2] | mortality [4]

FC(F)(F)c1cc(C2=NOC(c3cc(Cl)cc(Cl)c3)(C(F)(F)F)C2)ccc1-n1cncn1 (racemic) [Compound 31]
≥ 80%: control efficacy (20% or less feeding damage or 80% or more mortality) [1] | mortality [6] | mortality [7] | mortality [3]

Fc1ccc(C2(C(F)(F)F)CC(c3ccc(-n4cncn4)cc3)=NO2)cc1Cl (racemic) [Compound 32]
≥ 80%: control efficacy (20% or less feeding damage or 80% or more mortality) [1] | mortality [6] | mortality [7] | control efficacy (20% or less feeding damage or 80% or more mortality) [2] | mortality [4]

CC1(c2cc(Cl)cc(Cl)c2)CC(c2ccc(-n3cncn3)cc2)=NO1 (racemic) [Compound 35]
≥ 80%: control efficacy (20% or less feeding damage or 80% or more mortality) [1] | control efficacy (20% or less feeding damage or 80% or more mortality) [2] | mortality [4]

FC(F)(F)C1(c2cc(Cl)cc(Cl)c2)CC(c2ccc(-n3cncn3)c(Cl)c2)=NO1 (racemic) [Compound 36]
≥ 80%: control efficacy (20% or less feeding damage or 80% or more mortality) [1] | mortality [6] | mortality [7] | control efficacy (20% or less feeding damage or 80% or more mortality) [2] | mortality [3]

FC(F)(F)C1(c2cc(Cl)cc(Cl)c2)CC(c2ccc(-n3ccnn3)c(Cl)c2)=NO1 (racemic) [Compound 37]
≥ 80%: control efficacy (20% or less feeding damage or 80% or more mortality) [1] | mortality [6] | mortality [7] | control efficacy (20% or less feeding damage or 80% or more mortality) [2]

O=[N+]([O-])c1cc(C2=NOC(c3cc(Cl)cc(Cl)c3)(C(F)(F)F)C2)ccc1-n1cncn1 (racemic) [Compound 38]
≥ 80%: control efficacy (20% or less feeding damage or 80% or more mortality) [1] | mortality [6] | mortality [7] | control efficacy (20% or less feeding damage or 80% or more mortality) [2] | mortality [3] | mortality [4]

Fc1cc(Br)cc(C2(C(F)(F)F)CC(c3ccc(-n4cncn4)cc3)=NO2)c1 (racemic) [Compound 47]
≥ 80%: control efficacy (20% or less feeding damage or 80% or more mortality) [1] | mortality [6] | mortality [7] | control efficacy (20% or less feeding damage or 80% or more mortality) [2]

N#Cc1cc(C2=NOC(c3cc(Cl)cc(Cl)c3)(C(F)(F)F)C2)ccc1-n1ccnc1 (racemic) [Compound 61]
≥ 80%: control efficacy (20% or less feeding damage or 80% or more mortality) [1] | control efficacy (20% or less feeding damage or 80% or more mortality) [2] | mortality [3]

FC(F)(F)C1(c2cc(Cl)cc(Cl)c2)CC(c2ccc(-n3cncn3)c(Br)c2)=NO1 (racemic) [Compound 63]
≥ 80%: control efficacy (20% or less feeding damage or 80% or more mortality) [1] | control efficacy (mortality) [5] | mortality [6] | mortality [7] | control efficacy (20% or less feeding damage or 80% or more mortality) [2] | mortality [3]

N#Cc1cc(C2=NOC(c3cc(Cl)cc(Cl)c3)(C(F)(F)F)C2)ccc1-n1cnc(Br)n1 (racemic) [Compound 70]
≥ 80%: control efficacy (20% or less feeding damage or 80% or more mortality) [1] | mortality [6] | mortality [7] | control efficacy (20% or less feeding damage or 80% or more mortality) [2]

N#Cc1cc(C2=NOC(c3cc(Cl)cc(Cl)c3)(C(F)(F)F)C2)ccc1-n1cnnn1 (racemic) [Compound 72]
≥ 80%: control efficacy (20% or less feeding damage or 80% or more mortality) [1] | mortality [6] | mortality [7] | control efficacy (20% or less feeding damage or 80% or more mortality) [2] | mortality [3]

Nc1ncnn1-c1ccc(C2=NOC(c3cc(Cl)cc(Cl)c3)(C(F)(F)F)C2)cc1Br (racemic) [Compound 75]
≥ 80%: control efficacy (20% or less feeding damage or 80% or more mortality) [1] | control efficacy (20% or less feeding damage or 80% or more mortality) [2] | mortality [3]

FC(F)(F)C1(c2cc(Cl)cc(Cl)c2)CC(c2ccc(-n3ncnc3Br)cc2)=NO1 (racemic) [Compound 79]
≥ 80%: control efficacy (20% or less feeding damage or 80% or more mortality) [1] | mortality [6] | mortality [7] | control efficacy (20% or less feeding damage or 80% or more mortality) [2]

FC(F)(F)C1(c2cc(Cl)cc(Cl)c2)CC(c2ccc(-n3cncn3)nc2)=NO1 (racemic) [Compound 81]
≥ 80%: control efficacy (20% or less feeding damage or 80% or more mortality) [1] | mortality [6] | mortality [7] | control efficacy (20% or less feeding damage or 80% or more mortality) [2]

FC(F)(F)C1(c2cc(Cl)cc(Cl)c2)CC(c2cnc(-n3cncn3)c(Cl)c2)=NO1 (racemic) [Compound 82]
≥ 80%: control efficacy (20% or less feeding damage or 80% or more mortality) [1] | mortality [6] | mortality [7] | control efficacy (20% or less feeding damage or 80% or more mortality) [2]

CS(=O)(=O)c1ccc(C2=NOC(c3cc(Cl)cc(Cl)c3)(C(F)(F)F)C2)cc1Br (centres unmarked) [Compound 212]
≥ 80%: control efficacy (20% or less feeding damage or 80% or more mortality) [1] | mortality [6] | mortality [7] | control efficacy (20% or less feeding damage or 80% or more mortality) [2]
